# Experimental data as given in doi:10.1101/2025.08.07.669166.
# Chains of the proteins cited; added tags and fusions are not shown.
# UniProt P04150: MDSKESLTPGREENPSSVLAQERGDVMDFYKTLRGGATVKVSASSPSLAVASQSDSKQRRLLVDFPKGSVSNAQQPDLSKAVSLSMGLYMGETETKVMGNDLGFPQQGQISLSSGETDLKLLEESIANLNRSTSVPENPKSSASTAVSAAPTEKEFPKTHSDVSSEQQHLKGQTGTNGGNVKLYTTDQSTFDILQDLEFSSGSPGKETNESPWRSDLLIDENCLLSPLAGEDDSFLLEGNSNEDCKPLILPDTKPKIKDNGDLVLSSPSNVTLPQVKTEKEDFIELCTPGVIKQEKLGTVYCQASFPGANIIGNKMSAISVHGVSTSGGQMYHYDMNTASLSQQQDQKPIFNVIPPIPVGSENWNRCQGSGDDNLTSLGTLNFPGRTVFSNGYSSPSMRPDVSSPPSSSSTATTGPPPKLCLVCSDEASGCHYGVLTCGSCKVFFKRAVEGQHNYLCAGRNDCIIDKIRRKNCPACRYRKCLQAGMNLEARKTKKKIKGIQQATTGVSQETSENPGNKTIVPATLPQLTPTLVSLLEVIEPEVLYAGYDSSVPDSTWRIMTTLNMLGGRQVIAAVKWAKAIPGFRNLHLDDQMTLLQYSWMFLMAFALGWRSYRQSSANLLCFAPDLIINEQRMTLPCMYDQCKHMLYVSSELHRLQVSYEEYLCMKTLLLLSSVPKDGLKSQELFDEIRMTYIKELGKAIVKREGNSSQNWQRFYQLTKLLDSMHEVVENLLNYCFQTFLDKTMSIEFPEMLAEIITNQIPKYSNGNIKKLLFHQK
# UniProt Q9C0K0: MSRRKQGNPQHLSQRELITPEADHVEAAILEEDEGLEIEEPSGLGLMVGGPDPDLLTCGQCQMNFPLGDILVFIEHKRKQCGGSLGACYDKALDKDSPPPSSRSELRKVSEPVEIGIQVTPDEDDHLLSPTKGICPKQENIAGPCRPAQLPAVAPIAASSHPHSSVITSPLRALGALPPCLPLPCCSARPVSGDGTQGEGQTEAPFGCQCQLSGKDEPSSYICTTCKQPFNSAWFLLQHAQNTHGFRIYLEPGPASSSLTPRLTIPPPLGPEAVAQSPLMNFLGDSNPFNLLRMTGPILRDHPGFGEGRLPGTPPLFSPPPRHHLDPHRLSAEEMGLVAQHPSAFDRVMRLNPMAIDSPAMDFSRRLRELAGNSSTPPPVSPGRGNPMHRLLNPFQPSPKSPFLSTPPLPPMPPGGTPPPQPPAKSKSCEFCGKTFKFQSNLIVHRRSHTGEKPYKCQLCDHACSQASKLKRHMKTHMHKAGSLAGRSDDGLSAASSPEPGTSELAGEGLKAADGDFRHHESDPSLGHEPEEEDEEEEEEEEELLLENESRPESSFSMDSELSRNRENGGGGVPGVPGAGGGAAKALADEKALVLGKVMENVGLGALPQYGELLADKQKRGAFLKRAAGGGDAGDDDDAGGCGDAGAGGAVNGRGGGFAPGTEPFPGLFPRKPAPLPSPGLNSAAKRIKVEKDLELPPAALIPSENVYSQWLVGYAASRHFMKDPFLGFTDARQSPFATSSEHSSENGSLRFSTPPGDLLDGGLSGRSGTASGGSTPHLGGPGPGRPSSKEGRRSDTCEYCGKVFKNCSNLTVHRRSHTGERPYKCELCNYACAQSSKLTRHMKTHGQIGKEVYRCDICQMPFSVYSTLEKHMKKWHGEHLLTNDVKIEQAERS
# UniProt Q92922: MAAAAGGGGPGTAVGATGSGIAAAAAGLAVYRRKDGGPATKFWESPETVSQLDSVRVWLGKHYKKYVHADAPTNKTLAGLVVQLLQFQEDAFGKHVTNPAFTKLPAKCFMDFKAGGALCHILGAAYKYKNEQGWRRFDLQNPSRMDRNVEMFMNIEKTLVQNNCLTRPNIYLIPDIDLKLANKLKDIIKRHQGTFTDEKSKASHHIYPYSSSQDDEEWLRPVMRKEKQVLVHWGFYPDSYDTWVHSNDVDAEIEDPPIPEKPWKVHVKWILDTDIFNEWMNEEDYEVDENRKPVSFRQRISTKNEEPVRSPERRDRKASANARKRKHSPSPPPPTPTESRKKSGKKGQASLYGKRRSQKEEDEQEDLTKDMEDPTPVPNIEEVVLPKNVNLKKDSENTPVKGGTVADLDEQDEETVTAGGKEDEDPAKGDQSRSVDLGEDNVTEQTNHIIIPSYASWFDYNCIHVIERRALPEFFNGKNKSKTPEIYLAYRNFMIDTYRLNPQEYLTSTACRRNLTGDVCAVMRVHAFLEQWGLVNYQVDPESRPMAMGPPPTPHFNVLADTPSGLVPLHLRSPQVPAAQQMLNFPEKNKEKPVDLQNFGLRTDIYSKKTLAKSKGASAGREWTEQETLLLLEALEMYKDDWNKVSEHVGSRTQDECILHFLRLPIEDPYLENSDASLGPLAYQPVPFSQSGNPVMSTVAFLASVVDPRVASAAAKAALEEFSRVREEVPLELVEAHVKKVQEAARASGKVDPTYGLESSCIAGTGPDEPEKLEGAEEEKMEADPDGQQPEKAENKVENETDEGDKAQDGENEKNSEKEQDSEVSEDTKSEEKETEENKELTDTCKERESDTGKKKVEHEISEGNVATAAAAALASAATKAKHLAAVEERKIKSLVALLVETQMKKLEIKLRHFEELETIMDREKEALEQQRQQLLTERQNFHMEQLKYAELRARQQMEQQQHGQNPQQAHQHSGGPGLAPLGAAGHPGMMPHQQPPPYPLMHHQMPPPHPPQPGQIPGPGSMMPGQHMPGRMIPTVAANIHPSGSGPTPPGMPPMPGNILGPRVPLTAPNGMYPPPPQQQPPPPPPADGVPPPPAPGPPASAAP
# UniProt P23771: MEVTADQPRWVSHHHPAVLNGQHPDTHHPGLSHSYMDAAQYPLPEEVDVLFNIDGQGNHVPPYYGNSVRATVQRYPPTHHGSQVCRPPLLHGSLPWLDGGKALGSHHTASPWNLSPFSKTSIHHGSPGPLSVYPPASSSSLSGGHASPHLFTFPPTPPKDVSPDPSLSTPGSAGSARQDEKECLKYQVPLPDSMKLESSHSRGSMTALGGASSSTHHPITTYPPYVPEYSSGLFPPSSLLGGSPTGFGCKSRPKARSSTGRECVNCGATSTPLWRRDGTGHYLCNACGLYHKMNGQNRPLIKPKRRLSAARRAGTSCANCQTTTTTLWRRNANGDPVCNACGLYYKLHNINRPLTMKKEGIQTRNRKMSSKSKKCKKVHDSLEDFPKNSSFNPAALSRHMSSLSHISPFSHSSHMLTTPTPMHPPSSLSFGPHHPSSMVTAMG
# UniProt Q4ZG55: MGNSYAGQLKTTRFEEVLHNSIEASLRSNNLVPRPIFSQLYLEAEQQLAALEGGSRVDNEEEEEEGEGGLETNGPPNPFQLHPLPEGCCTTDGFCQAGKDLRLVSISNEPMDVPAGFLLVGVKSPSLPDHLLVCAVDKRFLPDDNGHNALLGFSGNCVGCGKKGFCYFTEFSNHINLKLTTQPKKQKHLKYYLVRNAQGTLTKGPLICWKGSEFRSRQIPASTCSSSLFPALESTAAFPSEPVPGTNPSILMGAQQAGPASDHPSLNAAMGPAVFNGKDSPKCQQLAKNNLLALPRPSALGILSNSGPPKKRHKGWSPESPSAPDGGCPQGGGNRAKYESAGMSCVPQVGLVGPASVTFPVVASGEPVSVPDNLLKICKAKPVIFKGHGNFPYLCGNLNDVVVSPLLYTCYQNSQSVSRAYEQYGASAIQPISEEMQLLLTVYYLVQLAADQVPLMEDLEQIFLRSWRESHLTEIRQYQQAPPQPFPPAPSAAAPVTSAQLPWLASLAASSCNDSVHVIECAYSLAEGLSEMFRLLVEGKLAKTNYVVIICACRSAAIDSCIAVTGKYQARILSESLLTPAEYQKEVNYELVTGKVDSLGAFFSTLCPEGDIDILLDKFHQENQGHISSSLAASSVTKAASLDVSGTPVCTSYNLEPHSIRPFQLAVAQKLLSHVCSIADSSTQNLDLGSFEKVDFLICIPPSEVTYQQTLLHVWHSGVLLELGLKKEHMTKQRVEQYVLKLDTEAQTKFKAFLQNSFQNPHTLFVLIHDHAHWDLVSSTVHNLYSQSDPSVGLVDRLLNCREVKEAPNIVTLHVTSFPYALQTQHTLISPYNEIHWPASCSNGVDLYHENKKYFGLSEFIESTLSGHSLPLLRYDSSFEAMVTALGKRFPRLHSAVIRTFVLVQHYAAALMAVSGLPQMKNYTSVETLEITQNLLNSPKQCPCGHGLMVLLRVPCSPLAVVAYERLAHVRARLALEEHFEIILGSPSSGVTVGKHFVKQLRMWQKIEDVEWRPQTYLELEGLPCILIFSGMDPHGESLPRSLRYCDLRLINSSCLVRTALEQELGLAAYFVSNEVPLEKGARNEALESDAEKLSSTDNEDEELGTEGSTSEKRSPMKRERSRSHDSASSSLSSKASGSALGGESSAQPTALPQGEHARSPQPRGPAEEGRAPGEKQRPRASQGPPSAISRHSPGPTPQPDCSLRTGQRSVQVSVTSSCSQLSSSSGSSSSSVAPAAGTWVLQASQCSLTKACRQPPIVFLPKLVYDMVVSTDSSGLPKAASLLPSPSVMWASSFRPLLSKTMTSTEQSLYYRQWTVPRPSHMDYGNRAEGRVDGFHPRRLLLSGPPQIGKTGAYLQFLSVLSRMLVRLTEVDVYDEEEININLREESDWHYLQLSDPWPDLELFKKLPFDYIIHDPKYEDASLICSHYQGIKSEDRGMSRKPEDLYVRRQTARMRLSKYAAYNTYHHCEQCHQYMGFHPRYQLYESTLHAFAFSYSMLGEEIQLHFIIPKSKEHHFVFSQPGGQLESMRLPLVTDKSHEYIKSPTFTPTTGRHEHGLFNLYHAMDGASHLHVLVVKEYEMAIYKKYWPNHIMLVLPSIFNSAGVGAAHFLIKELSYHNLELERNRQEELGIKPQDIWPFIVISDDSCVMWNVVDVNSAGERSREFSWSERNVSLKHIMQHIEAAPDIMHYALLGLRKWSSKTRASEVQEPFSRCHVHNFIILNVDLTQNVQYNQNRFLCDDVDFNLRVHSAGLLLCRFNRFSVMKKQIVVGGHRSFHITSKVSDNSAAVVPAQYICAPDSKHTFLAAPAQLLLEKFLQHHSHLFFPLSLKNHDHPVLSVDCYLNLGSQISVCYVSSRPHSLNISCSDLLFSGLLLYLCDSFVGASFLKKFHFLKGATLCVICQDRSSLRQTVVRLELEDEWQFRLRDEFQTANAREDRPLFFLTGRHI
# UniProt Q9UKT9: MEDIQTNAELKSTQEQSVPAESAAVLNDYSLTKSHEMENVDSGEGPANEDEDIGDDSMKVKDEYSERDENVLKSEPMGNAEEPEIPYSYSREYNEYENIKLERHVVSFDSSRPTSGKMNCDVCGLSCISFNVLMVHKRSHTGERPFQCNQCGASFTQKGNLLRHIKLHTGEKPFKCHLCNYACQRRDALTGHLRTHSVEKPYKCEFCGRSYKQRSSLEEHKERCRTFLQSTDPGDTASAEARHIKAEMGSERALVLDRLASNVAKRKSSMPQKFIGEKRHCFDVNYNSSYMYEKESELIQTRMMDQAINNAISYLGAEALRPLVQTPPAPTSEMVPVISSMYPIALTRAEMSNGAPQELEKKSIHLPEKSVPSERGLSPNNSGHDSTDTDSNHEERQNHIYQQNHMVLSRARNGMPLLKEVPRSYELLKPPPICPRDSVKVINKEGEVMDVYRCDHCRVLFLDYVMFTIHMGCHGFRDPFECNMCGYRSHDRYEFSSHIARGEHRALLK
# UniProt Q6STE5: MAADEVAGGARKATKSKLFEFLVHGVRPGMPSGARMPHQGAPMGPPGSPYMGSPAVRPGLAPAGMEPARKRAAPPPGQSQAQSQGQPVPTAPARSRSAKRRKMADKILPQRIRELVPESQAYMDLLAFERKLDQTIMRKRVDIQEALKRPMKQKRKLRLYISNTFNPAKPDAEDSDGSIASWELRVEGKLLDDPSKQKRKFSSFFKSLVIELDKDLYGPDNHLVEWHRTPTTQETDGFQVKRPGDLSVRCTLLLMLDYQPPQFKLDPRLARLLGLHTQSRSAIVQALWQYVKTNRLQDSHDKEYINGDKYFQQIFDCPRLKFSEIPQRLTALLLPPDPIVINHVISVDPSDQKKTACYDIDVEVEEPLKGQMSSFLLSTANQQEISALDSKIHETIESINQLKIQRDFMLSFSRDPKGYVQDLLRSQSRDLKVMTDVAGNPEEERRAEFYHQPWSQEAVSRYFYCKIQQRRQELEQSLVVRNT
# UniProt Q9GZV5: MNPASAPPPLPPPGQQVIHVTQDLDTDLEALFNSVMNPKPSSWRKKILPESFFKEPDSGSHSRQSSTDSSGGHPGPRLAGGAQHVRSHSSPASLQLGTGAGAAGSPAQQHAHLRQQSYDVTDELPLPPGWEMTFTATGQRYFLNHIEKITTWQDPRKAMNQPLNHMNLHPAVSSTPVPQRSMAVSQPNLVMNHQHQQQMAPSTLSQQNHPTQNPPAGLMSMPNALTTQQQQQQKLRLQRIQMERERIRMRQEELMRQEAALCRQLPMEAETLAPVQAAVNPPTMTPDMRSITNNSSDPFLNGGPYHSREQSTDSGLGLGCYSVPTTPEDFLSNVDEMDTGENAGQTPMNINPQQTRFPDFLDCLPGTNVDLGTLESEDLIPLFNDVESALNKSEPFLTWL
# Where two headings read alike, the source gives them in different places. Results are given in words; binding and its absence hold for the method and conditions named. Binding seen in cells or lysates may run through a third protein. A yes stands for co-enrichment or nearness to the bait. Other partners may have been found.
# Tests used:
# Experiment in all cases: affinity purification with mass spectrometry
# [1] = biological target: glucocorticoid receptor (human (endogenous in primary human cells, human cell lines and human PDX tumours)) (UniProt P04150)
# [2] = biological target: glucocorticoid receptor (human (endogenous in primary human cells, human cell lines and human PDX tumours)) (UniProt P04150); remark: listed apart in the source
# [3] = biological target: glucocorticoid receptor (human (endogenous in primary human cells, human cell lines and human PDX tumours)) (UniProt P04150); remark: listed apart in the source
# [4] = biological target: glucocorticoid receptor (human (endogenous in primary human cells, human cell lines and human PDX tumours)) (UniProt P04150); remark: listed apart in the source
# [5] = biological target: glucocorticoid receptor (human (endogenous in primary human cells, human cell lines and human PDX tumours)) (UniProt P04150); remark: listed apart in the source
binding [1],Substance,other results
binds,BCL11B (from UniProt Q9C0K0 1-894),
binds,SMARCC1 (from UniProt Q92922 1-1105),
binds,estrogen receptor alpha (from UniProt P03372 1-595),binding [3]: binds

# Second part, the substance before the results:
Substance,binding [1],other results
GATA3 (from UniProt P23771 1-443),binds,binding [2]: binds
GREB1 (from UniProt Q4ZG55 1-1949),binds,binding [3]: binds
IKZF3 (from UniProt Q9UKT9 1-509),binds,binding [4]: binds
SMARCD3 (from UniProt Q6STE5 1-483),binds,binding [5]: binds
WWTR1 (from UniProt Q9GZV5 1-400),binds,
